The record followed here is publication PMC9245043.

Chains of the proteins cited; added tags and fusions are not shown. Lines headed by an entry give the natural chain unless they say otherwise; changes in a name come on top.
UniProt P39113: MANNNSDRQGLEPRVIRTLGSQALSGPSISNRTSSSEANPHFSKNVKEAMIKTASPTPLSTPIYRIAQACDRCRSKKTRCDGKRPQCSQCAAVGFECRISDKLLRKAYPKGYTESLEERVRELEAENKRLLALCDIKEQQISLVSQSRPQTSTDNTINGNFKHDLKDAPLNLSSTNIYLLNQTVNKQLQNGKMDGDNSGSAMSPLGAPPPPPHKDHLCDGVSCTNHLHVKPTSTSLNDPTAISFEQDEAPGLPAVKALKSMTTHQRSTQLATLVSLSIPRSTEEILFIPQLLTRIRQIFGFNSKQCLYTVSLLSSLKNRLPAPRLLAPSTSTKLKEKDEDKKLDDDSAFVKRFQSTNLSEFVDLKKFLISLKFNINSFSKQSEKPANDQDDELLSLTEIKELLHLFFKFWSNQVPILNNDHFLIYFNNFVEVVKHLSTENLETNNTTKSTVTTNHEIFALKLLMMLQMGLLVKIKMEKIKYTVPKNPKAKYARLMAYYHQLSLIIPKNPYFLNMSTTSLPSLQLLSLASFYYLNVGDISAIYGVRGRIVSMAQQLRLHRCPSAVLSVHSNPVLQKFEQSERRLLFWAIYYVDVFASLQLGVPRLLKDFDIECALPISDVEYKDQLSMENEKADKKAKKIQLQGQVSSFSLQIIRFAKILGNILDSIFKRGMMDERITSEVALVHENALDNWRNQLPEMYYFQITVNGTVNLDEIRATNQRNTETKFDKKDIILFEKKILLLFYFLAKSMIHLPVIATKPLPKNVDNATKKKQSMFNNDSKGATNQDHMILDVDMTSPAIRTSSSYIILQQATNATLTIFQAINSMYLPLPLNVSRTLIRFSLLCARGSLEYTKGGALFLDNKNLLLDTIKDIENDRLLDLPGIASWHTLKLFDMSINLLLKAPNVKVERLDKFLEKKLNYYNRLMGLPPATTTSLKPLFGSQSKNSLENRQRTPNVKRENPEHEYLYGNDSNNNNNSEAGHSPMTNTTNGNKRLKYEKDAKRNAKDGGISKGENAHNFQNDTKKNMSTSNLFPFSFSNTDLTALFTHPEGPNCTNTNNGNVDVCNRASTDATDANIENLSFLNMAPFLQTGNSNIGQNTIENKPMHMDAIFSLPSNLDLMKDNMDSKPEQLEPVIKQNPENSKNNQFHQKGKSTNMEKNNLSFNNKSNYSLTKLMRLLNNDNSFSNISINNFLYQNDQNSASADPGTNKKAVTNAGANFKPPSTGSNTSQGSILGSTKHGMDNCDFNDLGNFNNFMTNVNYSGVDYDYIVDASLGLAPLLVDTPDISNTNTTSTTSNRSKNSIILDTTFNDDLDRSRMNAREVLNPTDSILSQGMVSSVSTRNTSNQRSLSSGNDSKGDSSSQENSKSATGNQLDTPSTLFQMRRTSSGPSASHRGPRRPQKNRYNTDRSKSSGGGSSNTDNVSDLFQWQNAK

B1: Gat1 with Myc tag (plasmid YEpA-GAT1-Myc) (protein, UniProt P43574 1-510)
chain: MHVFFPLLFRPSPVLFIACAYIYIDIYIHCTRCTVVNITMSTNRVPNLDPDLNLNKEIWDLYSSAQKILPDSNRILNLSWRLHNRTSFHRINRIMQHSNSIMDFSASPFASGVNAAGPGNNDLDDTDTDNQQFFLSDMNLNGSSVFENVFDDDDDDDDVETHSIVHSDLLNDMDSASQRASHNASGFPNFLDTSCSSSFDDHFIFTNNLPFLNNNSINNNHSHNSSHNNNSPSIANNTNANTNTNTSASTNTNSPLLRRNPSPSIVKPGSRRNSSVRKKKPALKKIKSSTSVQSSATPPSNTSSNPDIKCSNCTTSTTPLWRKDPKGLPLCNACGLFLKLHGVTRPLSLKTDIIKKRQRSSTKINNNITPPPSSSLNPGAAGKKKNYTASVAASKRKNSLNIVAPLKSQDIPIPKIASPSIPQYLRSNTRHHLSSSVPIEAETFSSFRPDMNMTMNMNLHNASTSSFNNEAFWKPLDSAIDHHSGDTNPNSNMNTTPNGNLSLDWLNLNL
B2: Aro80 with Myc tag (plasmid YEpA-ARO80-Myc) (protein, UniProt Q04052 1-950)
chain: MSAKKRPSGNAAFELPKRRRTYQACISCRSRKVKCDLGPVDNPHDPPCARCKRELKKCIFSSNKGTSNDLPPNSINAISLPSLGKSKQEIQNDSTSPILSDVPLSRKGISSEKSFKSEGMKWKLELSSMQNALEFLAQAAGTVAKEGAKEIIKEKSTTPKPLKSSLDATNKSATDEGLKRLSKSDSTNTLYENTADMLNHTLNTNRKTSQLMEEIGKVRPPPTRKIDDFDYIGPDSLLTKEEAIELIEAFFLTMHPFFPNIPLQLHDPKELAEYPILFCAILTVSARYHPFDTLGLDNGEDGMRHIEVHDKLWVYCQKLISQTIWAEASTRSIGTVLAFIIFTEWNPRSIHYKWSDYANDPELNNVNARGSKNISTRKDEEGLTGVGAIRRSDRMSWMLTGSAVRLAQDMGFIENSSKVFIVTHISETTSAMNMNQRSLLAESFSVLNLNLGKIENDGNESNEDYLGNEKFYLNEILPDEESKLRWKRVFENSENDHDNEKNFLTDWEREFLNDEYVLYYSNKKDDTNLAQNHIPPFPLRFSFAQRAKIEIIRILSIAYETIYCEKNKRKLATTDQRHNLSVLSVFSPLIEGWLSNYRELLVPLSDVPFSLADRKNKKQIFDNIDRINGESIITDFNYCQLYIFSLALQVDGKTSRLNMNEIVTSARYVELAYRSAKEILSSAKRVSRQGMLKYMPVRWVIRIIRSIAFIVKCYLTLTGSELATNPDARNILKLSAISVDETFDIIRDTAVTLKEATPDELHLCQRYAAILMYLCTEMKLRKKSYLERPPLLRDGTTPLESNRESSLEGQDLTKKPIFSKRIGYNKTETTFEPSERPLTEEINSNSQNSNDTSSKGIVDPFVEQNNDITTALLNNELFQGPSLSDEVTDWFGASEDIGLEFVEPWTELIEQRYMQCGDGDNNNFENLYNLFVNSNNINNDINNSRPITRK
B3: Gln3 with Myc tag (plasmid YEpA-GLN3-Myc) (protein, UniProt P18494 1-730)
chain: MQDDPENSKLYDLLNSHLDVHGRSNEEPRQTGDSRSQSSGNTGENEEDIAFASGLNGGTFDSMLEALPDDLYFTDFVSPFTAAATTSVTTKTVKDTTPATNHMDDDIAMFDSLATTQPIDIAASNQQNGEIAQLWDFNVDQFNMTPSNSSGSATISAPNSFTSDIPQYNHGSLGNSVSKSSLFPYNSSTSNSNINQPSINNNSNTNAQSHHSFNIYKLQNNNSSSSAMNITNNNNSNNSNIQHPFLKKSDSIGLSSSNTTNSVRKNSLIKPMSSTSLANFKRAASVSSSISNMEPSGQNKKPLIQCFNCKTFKTPLWRRSPEGNTLCNACGLFQKLHGTMRPLSLKSDVIKKRISKKRAKQTDPNIAQNTPSAPATASTSVTTTNAKPIRSRKKSLQQNSLSRVIPEEIIRDNIGNTNNILNVNRGGYNFNSVPSPVLMNSQSYNSSNANFNGASNANLNSNNLMRHNSNTVTPNFRRSSRRSSTSSNTSSSSKSSSRSVVPILPKPSPNSANSQQFNMNMNLMNTTNNVSAGNSVASSPRIISSANFNSNSPLQQNLLSNSFQRQGMNIPRRKMSRNASYSSSFMAASLQQLHEQQQVDVNSNTNTNSNRQNWNSSNSVSTNSRSSNFVSQKPNFDIFNTPVDSPSVSRPSSRKSHTSLLSQQLQNSESNSFISNHKFNNRLSSDSTSPIKYEADVSAGGKISEDNSTKGSSKESSAIADELDWLKFGI

These are yes or no findings as the source states them, for the method shown. In cells and extracts the contact can be indirect. A result given as binding can be weak or reduced; the word gives no strength. Tags and fused reporters may be left off the sequences shown.

In the test the target is Cat8 with a 3 × HA tag at the carboxyl terminus (strain YS58-CAT8-HA) (S. cerevisiae) (UniProt P39113). The test can be described thus: co-IP; yeast lysate of strains co-expressing Cat8-HA and a Myc-tagged factor, cells in Phe induction medium with 2% glycerol for 6 h; IP with anti-HA, anti-Myc or IgG (negative control) on magnetic beads at 4°C, IP Lysis/Wash Buffer pH 7.4 (25 mM Tris, 150 mM NaCl, 1 mM EDTA, 1% NP-40, 5% glycerol); immunoblot with HA and Myc antibodies. In general terms: A western blot detects proteins with antibodies after separation by electrophoresis.
B1: the binding entry is “binds”.

As to B2, the binding result is “binds”.

For B3, the binding entry is on record as “no binding”.
